# No constants are given. Whether binding was seen depends on the method and setting. In cells and extracts the contact can be indirect. Some binding calls cover weakened binding; strength is not graded here.
# Sequences of proteins named here, by UniProt entry; tags and fusion partners are left off.
# UniProt P24723: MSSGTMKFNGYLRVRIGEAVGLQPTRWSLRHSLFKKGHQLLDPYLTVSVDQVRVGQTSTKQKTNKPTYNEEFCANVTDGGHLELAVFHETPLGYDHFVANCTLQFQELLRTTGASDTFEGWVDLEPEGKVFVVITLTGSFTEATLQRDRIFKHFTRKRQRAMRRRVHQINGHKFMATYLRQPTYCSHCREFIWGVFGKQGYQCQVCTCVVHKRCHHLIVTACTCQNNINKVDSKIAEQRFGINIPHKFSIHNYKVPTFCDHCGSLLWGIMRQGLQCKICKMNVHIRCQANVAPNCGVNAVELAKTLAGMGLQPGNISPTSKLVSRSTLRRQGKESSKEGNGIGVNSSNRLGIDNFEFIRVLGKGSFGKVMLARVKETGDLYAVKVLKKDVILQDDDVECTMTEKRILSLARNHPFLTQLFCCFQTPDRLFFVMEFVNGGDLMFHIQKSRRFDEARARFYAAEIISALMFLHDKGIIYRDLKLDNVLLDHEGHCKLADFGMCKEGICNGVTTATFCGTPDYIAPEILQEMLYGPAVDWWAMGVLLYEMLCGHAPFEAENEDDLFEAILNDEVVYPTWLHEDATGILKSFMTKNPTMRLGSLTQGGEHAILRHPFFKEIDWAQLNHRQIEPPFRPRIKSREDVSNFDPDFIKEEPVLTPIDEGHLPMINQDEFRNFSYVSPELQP
# B1: annexin7 (ANX7) (protein, UniProt P20073-1 1-488)
# chain: MSYPGYPPTGYPPFPGYPPAGQESSFPPSGQYPYPSGFPPMGGGAYPQVPSSGYPGAGGYPAPGGYPAPGGYPGAPQPGGAPSYPGVPPGQGFGVPPGGAGFSGYPQPPSQSYGGGPAQVPLPGGFPGGQMPSQYPGGQPTYPSQINTDSFSSYPVFSPVSLDYSSEPATVTQVTQGTIRPAANFDAIRDAEILRKAMKGFGTDEQAIVDVVANRSNDQRQKIKAAFKTSYGKDLIKDLKSELSGNMEELILALFMPPTYYDAWSLRKAMQGAGTQERVLIEILCTRTNQEIREIVRCYQSEFGRDLEKDIRSDTSGHFERLLVSMCQGNRDENQSINHQMAQEDAQRLYQAGEGRLGTDESCFNMILATRSFPQLRATMEAYSRMANRDLLSSVSREFSGYVESGLKTILQCALNRPAFFAERLYYAMKGAGTDDSTLVRIVVTRSEIDLVQIKQMFAQMYQKTLGTMIAGDTSGDYRRLLLAIVGQ
# What was measured:
# [1] = molecular target: T1, annexin7 (ANX7) (human (endogenous in S2-013)) (UniProt P20073); test: co-IP; endogenous proteins, S2-013 cells, precipitated with anti-ANX7 or anti-phospho-PKCα antibody, Western blot with antibodies against ANX7, phospho-PKCα and phospho-PKCη
# T1 sequence: B1 chain
# [2] = molecular target: T2, binder of Arl two (BART) (human (endogenous in S2-013)) (UniProt Q9Y2Y0); test: co-IP; endogenous proteins, S2-013 lysate, precipitated with anti-BART or anti-ANX7 antibody, Western blot; also cells treated with PMA with or without calphostin C or chelerythrine chloride (BART IP)
# T2 sequence: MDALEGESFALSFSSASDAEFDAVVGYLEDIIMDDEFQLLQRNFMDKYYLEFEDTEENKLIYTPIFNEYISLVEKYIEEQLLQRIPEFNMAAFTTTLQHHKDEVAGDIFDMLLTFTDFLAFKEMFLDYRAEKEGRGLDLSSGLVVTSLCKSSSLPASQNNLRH
molecule,measurement,setting,value
Phospho-PKCη (from UniProt P24723 1-683) (enzyme),binding,[1],no binding
phosphorylated PKCα (from UniProt P17252 1-672) (enzyme),binding,[1],binds
B1,binding,[2],binds
